This experiment can be described thus: qHTS Assay to Find Inhibitors of Chronic Active B-Cell Receptor Signaling. As to conditions: ABC-DLBCL IkBa-CBG/CBR reporter, luminescence ratio (green luciferase fused to IkBa over red control in TMD8 lymphoma cells), 4 h. The gist of the method:
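Doxycycline induced both beetle luciferases in TMD8 lymphoma cells; IKK-driven degradation limits the IkappaBalpha-fused green signal, while red luminescence normalises for cell number and nonspecific effects. Compounds tested up to 46 uM, 4 hrs.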

Setting [1] is: measured here: CBR red luminescence, cell number.
The mark [2] stands for this setting: measured here: IkBa-CBG green luminescence.

Some of the results follow. The main result of the screen is listed elsewhere. These columns were measured beside it and carry no call. The list favours compounds with an active or inconclusive main result. Potencies come from curve fits of mixed quality, noted in brackets.

Usually AC50 stands for the concentration at which the activity in the assay is half-maximal.

Take `Cc1ccc(Cl)cc1N1CCN(S(=O)(=O)c2c(C)[nH]c(=O)[nH]c2=O)CC1`: the AC50 under setting [1] is 0.355 µM [falling, full curve].

In the case of `CCN(CC)c1ccc(C(=O)Nc2cccc(F)c2)cc1`, the half-maximal activity concentration (AC50) under setting [1] was 29.1 µM [falling, single point].

Regarding `COc1nc(NCCO)nc(Nc2ccc([N+](=O)[O-])cc2)n1`, the half-maximal activity concentration (AC50) under setting [1] was 7.31 µM [rising, partial curve, poor fit].

As for `Cn1c(C(=O)NCCCN2CCN(c3cccc(Cl)c3)CC2)cc2c(=O)n(C)c3ccccc3c21`, the concentration at half-maximal activity (AC50) under setting [1] was 2.06 µM [falling, partial curve, poor fit].

Turning to `CC1(C)CC(=O)c2sc(NC(=O)c3cccs3)nc2C1`, the AC50 under setting [1] is 2.31 µM [falling, full curve].

With `Cc1ccc(C)c(NC(=O)CN(C)C(=O)c2oc3c(Cl)cccc3c2C)c1`, the AC50 under setting [1] is 5.17 µM [rising, full curve].

As to `Cc1ccc(NC(=O)Cc2ccc3c(c2)CCCC3)cc1C`, the half-maximal activity concentration (AC50) under setting [1] is 25.9 µM [falling, single point].

On to `Cc1ccccc1OCCOc1cccc(/C=N/NC(=O)Cc2nnc(N)s2)c1`, for which the AC50 under setting [1] was 35.5 µM [falling, single point].

Turning to `NC(=S)NN=C1C2CC3CC(C2)CC1C3`, the AC50 under setting [2] is 22.4 µM [falling, single point].

As for `CCCCn1c(CN2CCN(C(=O)OCC)CC2)nc2c1c(=O)n(C)c(=O)n2C`, the AC50 under setting [1] was 0.794 µM [falling, full curve, poor fit].

As to `COc1ccc(-c2cc(C(F)(F)F)nc(S(C)(=O)=O)n2)cc1OC`, the AC50 under setting [1] was 2.82 µM [falling, full curve].

On to `Cc1cccc2sc(N(Cc3cccnc3)C(=O)CCS(=O)(=O)c3ccccc3)nc12`, for which the AC50 under setting [1] is 35.5 µM [falling, single point].

For `S=C(NCc1ccc2c(c1)OCO2)Nc1ccc(-c2nc3ccccc3[nH]2)cc1`, under setting [1], the AC50 is 29.1 µM [falling, single point].

As for `COc1cccc(NC(=O)c2oc3ccccc3c2NC(C)=O)c1`, under setting [1], the half-maximal activity concentration (AC50) was 11.2 µM [falling, partial curve, poor fit].

On to `Cc1ccc(-c2nnc(-c3ccccc3)c(N3CCOCC3)n2)cc1`, for which the half-maximal activity concentration (AC50) under setting [1] was 12.6 µM [falling, single point].

On to `CSc1ccc(/C=N/NC(=O)c2cccc(Cl)c2)cc1`, for which the AC50 under setting [1] is 20.6 µM [falling, partial curve].

With `Cc1ccccc1-c1nc(CS(=O)CC(=O)NCCCN(C)c2ccccc2)c(C)o1` (configuration not stated), the AC50 under setting [1] was 35.5 µM [falling, single point].

As for `Cc1cc(OCC[N+]2(C)CCCCC2)nc2ccccc12`, the AC50 under setting [1] is 0.291 µM [falling, full curve, poor fit].

Turning to `COc1ccccc1NC(=O)CSc1nn2c(=O)c(C)nnc2s1`, the AC50 under setting [1] is 35.5 µM [falling, single point].

With `CNc1ncc(C(=O)c2ccc(-c3ccccc3)cc2)s1`, the concentration at half-maximal activity (AC50) under setting [1] is 5.62 µM [falling, partial curve].

On to `CC(=O)Nc1ccc(S(=O)(=O)N2CCN(S(=O)(=O)N3CCCCC3)CC2)cc1`, for which, under setting [1], the half-maximal activity concentration (AC50) was 0.398 µM [falling, partial curve, poor fit].

Consider `c1ccc(Cn2cc(CN3CCCO3)c(-c3ccc4c(c3)OCO4)n2)cc1`, for which the half-maximal activity concentration (AC50) under setting [1] is 35.5 µM [rising, single point].

In the case of `COC(=O)c1cccc(NC(=O)c2cc3sccc3n2C)c1`, the AC50 under setting [1] was 0.184 µM [falling, full curve, poor fit].

Regarding `Cc1ccc(NC(=O)c2ccc3c(c2)NC(=O)CS3)nc1`, the concentration at half-maximal activity (AC50) under setting [1] is 20.6 µM [falling, single point].

With `O=C(COC(=O)[C@@H]1CCCN1C(=O)c1cccs1)NCCc1ccccc1`, the AC50 under setting [1] was 6.51 µM [rising, full curve].

Consider `O=C(Nc1ccccc1N1CCCCC1)c1cccc(F)c1`, for which, under setting [1], the AC50 is 0.731 µM [rising, partial curve, poor fit].

For the compound `CCCc1[nH]n(-c2ccc([N+](=O)[O-])cc2)c(=O)c1C=NCCN1CCNCC1`, the half-maximal activity concentration (AC50) under setting [1] is 0.1 µM [rising, full curve, poor fit].

As to `CCOC(=O)C(C)Oc1cccc2c(=O)n(CC(=O)NCc3ccc4c(c3)OCO4)ccc12` (configuration not stated), the concentration at half-maximal activity (AC50) reads like this: under setting [1], 2.51 µM [rising, partial curve, poor fit]; under setting [2], 2.51 µM [falling, full curve].

As to `O=C(NCc1ccc(N2CCCC2=O)cc1)c1cn(CCc2ccccc2)nn1`, under setting [1], the half-maximal activity concentration (AC50) is 0.0651 µM [falling, full curve, poor fit].

Take `COc1ccc2c(c1)c(=O)oc1cc(OCC(=O)NC3CC3)ccc12`: the AC50 under setting [1] was 14.6 µM [rising, partial curve, poor fit].

As to `Oc1cccc(/C=N/N(Cc2ccccc2)c2ccccc2)c1`, the AC50 runs as follows: under setting [1], 35.5 µM [falling, partial curve, poor fit]; under setting [2], 35.5 µM [rising, partial curve, poor fit].

In the case of `O=C(O)CSc1ccc2ccccc2n1`, the concentration at half-maximal activity (AC50) under setting [1] is 0.103 µM [rising, full curve, poor fit].

As for `CC(C)SC1=NC(C)(C)C=C(/C=C/c2ccc(Cl)cc2Cl)N1`, the half-maximal activity concentration (AC50) under setting [1] was 11.6 µM [falling, partial curve].

In the case of `COc1cccc2sc(N(Cc3cccnc3)C(=O)C3CCCCC3)nc12`, the AC50 under setting [1] is 1.78 µM [falling, full curve].

As for `CC(Oc1ccc(Br)cc1)C(=O)Nc1nc(-c2ccccn2)cs1` (configuration not stated), the concentration at half-maximal activity (AC50) is, setting by setting: under setting [1], 8.91 µM [rising, partial curve, poor fit]; under setting [2], 11.2 µM [falling, single point].

For the compound `O=C(CCC(=O)OCc1cccc(C(=O)Oc2ccccc2)c1)Nc1cccc2ccccc12`, under setting [1], the concentration at half-maximal activity (AC50) was 2.31 µM [rising, full curve, poor fit].

For the compound `COc1ccc(Nc2nc(-c3ccccc3O)nc3ccccc23)cc1`, the concentration at half-maximal activity (AC50) under setting [1] is 28.2 µM [falling, single point].

Consider `Cc1ccc(NC(=O)C(c2ccccc2)N2CCN(C(=O)c3ccco3)CC2)cc1Cl` (configuration not stated), for which, under setting [1], the half-maximal activity concentration (AC50) was 1.16 µM [rising, full curve, poor fit].

With `Cc1ccc(C2(C(F)(F)F)NC(=O)N3CCN=C3S2)cc1` (configuration not stated), the concentration at half-maximal activity (AC50) under setting [1] is 28.2 µM [falling, single point].

`Cc1ccc(NC(=S)NCCc2ccccc2)nc1`: the half-maximal activity concentration (AC50) under setting [1] is 2.82 µM [rising, full curve].

`O=C(O)CCCCCN=C1CCc2ccccc2N1`: the AC50 under setting [1] is 3.16 µM [falling, full curve, poor fit].

For `COc1cccc(/C=C2\CCC(C3CCCC3)C2=O)c1` (configuration not stated), the concentration at half-maximal activity (AC50) under setting [1] is 12.6 µM [rising, single point].

On to `O=S(=O)(c1cccc2cccnc12)n1cnc2ccccc21`, for which, under setting [1], the half-maximal activity concentration (AC50) was 29.1 µM [falling, single point].

Regarding `CCCCC1(CCCC)NC(=S)N(Nc2ccc(C)cc2)C1=O`, the AC50 under setting [1] is 2.91 µM [rising, single point].

With `O=C(CNC(=O)c1cccs1)NCC(=O)OCc1ccc(Cl)cc1`, the AC50 under setting [1] is 35.5 µM [rising, single point].

Take `Cc1ccc(/C=C/C(=O)NCCCN2CCN(CCCNC(=O)/C=C/c3ccc(C)o3)CC2)o1`: the half-maximal activity concentration (AC50) under setting [1] is 13 µM [rising, partial curve, poor fit].

In the case of `O=C(N/N=C/c1cc(O)ccc1[N+](=O)[O-])c1ccc2c(c1)OCCO2`, the AC50 under setting [1] was 3.55 µM [falling, partial curve].

Take `Nn1c(=O)[nH]c2c([nH]c3ccccc32)c1=O`: the AC50 under setting [1] was 12.6 µM [falling, partial curve, poor fit].

As for `CC(C)(C)CC(C)(C)NC(=S)NC1CCN(Cc2ccccc2)CC1`, the half-maximal activity concentration (AC50) under setting [1] was 29.1 µM [falling, single point].

On to `COc1ccc(-c2nc3ccccc3[nH]2)cc1`, for which, under setting [1], the AC50 is 16.4 µM [falling, single point].

With `COc1ccc(-n2c(C)cc(C(=O)COC(=O)c3cc(OC)c(OC)cc3NC(=O)c3cccs3)c2C)cc1`, the half-maximal activity concentration (AC50) under setting [1] was 32.6 µM [rising, single point].

For the compound `COc1ccccc1N(CC(=O)NC1CCCC1)C(=O)CCC(=O)Nc1cc(C)on1`, the AC50 under setting [1] is 1.46 µM [falling, full curve, poor fit].

With `CCOc1cc(-c2cn(S(=O)(=O)c3cccc4nsnc34)nc2N)cc(OCC)c1OCC`, the AC50 under setting [1] was 32.6 µM [falling, single point].

For the compound `CC1CCCCN1C(=O)Cc1ccc(Cl)cc1` (configuration not stated), the half-maximal activity concentration (AC50) under setting [1] is 9.2 µM [rising, partial curve, poor fit].

`CCCCOc1ccc(OCCNS(=O)(=O)N(C)C)cc1`: the concentration at half-maximal activity (AC50) under setting [1] is 35.5 µM [rising, single point].

Turning to `CCCC1(C(=O)O)NC(c2ccccc2O)C2C(=O)N(c3cccc(Cl)c3)C(=O)C21` (configuration not stated), under setting [1], the AC50 is 13 µM [rising, single point].

Regarding `C/C(=N/OCO/N=C(/C)c1ccc(F)cc1)c1ccc(F)cc1`, the AC50 under setting [1] was 29.1 µM [falling, single point].

Regarding `COc1ccc(C(=O)NCc2ccc3c(c2)CCN3C(C)=O)cc1OC`, the AC50 under setting [1] is 3.55 µM [falling, partial curve, poor fit].

For `COCCCNC(=O)Cn1ccc(N)nc1=O`, the half-maximal activity concentration (AC50) under setting [1] was 1.64 µM [rising, full curve].

On to `COCC(C)n1c(SCC(=O)Nc2ccc3c(c2)OCCO3)nc2ccccc2c1=O` (configuration not stated), for which, under setting [1], the concentration at half-maximal activity (AC50) is 2.59 µM [rising, partial curve, poor fit].

On to `O=C(O)CCn1cc(C2CC(c3ccccc3)=NN2c2ccccc2)c(-c2ccccc2)n1` (configuration not stated), for which, under setting [1], the AC50 is 14.1 µM [falling, single point].

With `CCNc1nc(NCC)nc(OCCOC(=O)c2ccccc2)n1`, the concentration at half-maximal activity (AC50) under setting [1] was 3.98 µM [rising, single point].

As for `CC(C)CCSc1ncnc2c1oc1nc3c(cc12)COC(C)(C)C3`, the AC50 under setting [1] was 4.61 µM [rising, full curve, poor fit].

Regarding `Cc1cc(-n2cnc(-c3cn[nH]c3C)n2)no1`, the half-maximal activity concentration (AC50) under setting [1] was 2.24 µM [falling, full curve, poor fit].

Source of the values: PubChem BioAssay AID493014 (National Center for Advancing Translational Sciences (NCATS), 2011).
